Source: the supplement of paper PMC3682954
Where “and” joins values, the source holds several entries; their conditions need not be identical. Equal entries are not always repeated. Structures can show the parent of a compound that is named as a salt. ± gives the standard deviation of the averaged measurements. This is one part of the list. Repeats are few or missing, and single values can be far off.

Tested on: RAW 264.7
Test: cell viability (MTT) relative to vehicle control; higher = more viable cells
Conditions: stimulus: HMGB1 5 ug/ml, 18 h
[1] = compound concentration: 1 ug/ml

| SMILES | cell viability (compound concentration: 3 uM) | cell viability [1] [%] |
| --- | --- | --- |
| O=C(O)CCCO | 107% | – |
| N[C@]1(C(=O)O)CC[C@H](C(=O)O)C1 (racemic) [trans-(±)-ACPD] | 113% | – |
| CC(NC(C)(C)C)C(=O)c1cccc(Cl)c1 (stereo not drawn) [Bupropion hydrochloride] | 106 ± 10% | – |
| CC(NC(C)(C)C)C(=O)c1cccc(Cl)c1 (stereo not drawn) | 98.3% and 87% and 112% | – |
| CC(NC(C)(C)C)C(=O)c1cccc(Cl)c1 (stereo not drawn) [Amfebutamone] | 103% | – |
| CN(C)Cc1c[nH]c2c(OCc3ccccc3)cccc12 [7-Benzyloxygramine] | – | 100 |
| Oc1ccc2c3c1O[C@H]1c4[nH]c5ccccc5c4C[C@@]4(O)[C@@H](C2)N(CC2CC2)CC[C@]314 [Naltrindole] | 108 ± 14% | – |
| Oc1ccc2c3c1O[C@H]1c4[nH]c5ccccc5c4C[C@@]4(O)[C@@H](C2)N(CC2CC2)CC[C@]314 [Naltrindole hydrochloride] | 101% | – |
| NCC(CC(=O)O)c1ccc(Cl)cc1 (stereo not drawn) | 108% | – |
| CN1CC[C@@]2(C)c3cc(O)ccc3N(C)C12 (single isomer, unassigned; (-)) [(-)-Eseroline fumarate] | 105% | 97.6 |
| CC(C)[C@]12O[C@H]1[C@@H]1O[C@]13[C@]1(O[C@H]1C[C@H]1C4=C(CC[C@@]13C)C(=O)OC4)[C@@H]2O | 2.31% | – |
| CC(=O)[C@H]1CC[C@H]2[C@@H]3CC[C@H]4C[C@H](O)CC[C@]4(C)[C@H]3CC[C@]12C [5alpha-Pregnan-3alpha-ol-20-one] | 111% | – |
| C=CCSSCC=C | 137% | – |
| CN1CCC2(C)c3cc(O)ccc3N(C)C12 (single isomer, unassigned; (-)) [(-)-Eseroline, Fumarate salt] | – | 94.9 |
| CN1CCC2(C)c3cc(O)ccc3N(C)C12 (single isomer, unassigned; (-)) [(-)-Eseroline fumarate salt] | 99.3% | – |
| NC1=NC(=O)C(c2ccccc2)O1 (stereo not drawn) [Pemoline] | 96.2% | – |
| CCOC(=O)C1(c2ccccc2)CCN(CCC(C#N)(c2ccccc2)c2ccccc2)CC1 | 99.7% | – |
| CC[C@@H]1C=CC=CC[C@H](C)[C@@H](O)[C@@H](C)C(=O)[C@H](C)[C@@H](O)[C@H](C)C(=O)[C@H](C)[C@@H](O)[C@H](C)C=CC(=O)O[C@H]2[C@@H](C)[C@@H](CC1)O[C@@]1(CC[C@@H](C)[C@@H](C[C@H](C)O)O1)[C@@H]2C | 84.2% | – |
| CC(=O)[C@H]1CC[C@H]2[C@@H]3CC[C@H]4C[C@](C)(O)CC[C@]4(C)[C@H]3CC[C@]12C [Ganaxolone] | 107% | – |
| CN1[C@@H]2C[C@@H](OC(=O)[C@H](CO)c3ccccc3)C[C@H]1[C@@H]1O[C@@H]12 [Scopolamine] | 103% | – |
| CN1[C@@H]2C[C@@H](OC(=O)[C@H](CO)c3ccccc3)C[C@H]1[C@@H]1O[C@@H]12 [(-)-Scopolamine hydrobromide] | 119% | – |

| SMILES | cell viability (compound concentration: 3 uM) | cell viability [1] [%] |
| --- | --- | --- |
| CN1[C@@H]2C[C@@H](OC(=O)[C@H](CO)c3ccccc3)C[C@H]1[C@@H]1O[C@@H]12 | 116% | – |
| CN1[C@@H]2C[C@@H](OC(=O)[C@H](CO)c3ccccc3)C[C@H]1[C@@H]1O[C@@H]12 [Scopolamine hydrochloride] | 112% | – |
| C#C[C@]1(O)CC[C@H]2[C@@H]3CCC4=CC(=O)CCC4=C3C=C[C@@]21CC [Gestrinone] | 108 ± 1.3% | – |
| CN[C@@H](C)[C@@H](O)c1ccccc1 | 104% | – |
| CN1C[C@H](C(=O)N[C@]2(C)O[C@@]3(O)[C@@H]4CCCN4C(=O)[C@H](Cc4ccccc4)N3C2=O)C=C2c3cccc4[nH]cc(c34)C[C@H]21 [Ergotamine] | 127% | – |
| CN1C[C@H](C(=O)N[C@]2(C)O[C@@]3(O)[C@@H]4CCCN4C(=O)[C@H](Cc4ccccc4)N3C2=O)C=C2c3cccc4[nH]cc(c34)C[C@H]21 | 106% | – |
| NCC(CC(=O)O)c1ccc(Cl)cc1 (racemic) [(±)-Baclofen] | 108% | – |
| NCC(CC(=O)O)c1ccc(Cl)cc1 (racemic) [Baclofen (R,S)] | 92.6% | – |
| N[C@@H]1C[C@H]1c1ccccc1 [Tranylcypromine hydrochloride] | 103 ± 5.1% | – |
| [O-][n+]1ccccc1[S-].[O-][n+]1ccccc1[S-].[Zn+2] | 89.8% | – |
| NC(CCCCCP(=O)(O)O)C(=O)O (racemic) [(±)-2-Amino-7-phosphonoheptanoic acid] | 105% | – |
| C[C@]12C[C@H]3S[C@H]3C[C@@H]1CC[C@@H]1[C@@H]2CC[C@]2(C)[C@@H](O)CC[C@@H]12 [Epitiostanol] | 97.8% | – |
| COP(=O)(OC)C(O)C(Cl)(Cl)Cl (stereo not drawn) | 115% | – |
| COP(=O)(OC)C(O)C(Cl)(Cl)Cl (stereo not drawn) [Trichlorfon] | 94.3% | – |
| CCCC(C)C1(CC)C(=O)NC(=O)NC1=O (stereo not drawn) [Pentobarbital] | 110% | – |
| c1ccc(Cn2ccnc2)cc1 | 101% | – |
| C=CCN1CC[C@]23c4c5ccc(O)c4O[C@H]2C(=O)CC[C@@]3(O)[C@H]1C5 [Naloxone] | 111% | – |
| C=CCN1CC[C@]23c4c5ccc(O)c4O[C@H]2C(=O)CC[C@@]3(O)[C@H]1C5 | 108% | – |
| C=CCN1CC[C@]23c4c5ccc(O)c4O[C@H]2C(=O)CC[C@@]3(O)[C@H]1C5 [Naloxone hydrochloride] | 102 ± 8% | – |
| CP(=O)(O)C1=CCNCC1 | 114% | – |
| C[C@@H]1O[C@H](C[N+](C)(C)C)C[C@H]1O (racemic) [(±)-Muscarine chloride] | 116% | – |

Part of the list above, bar-delimited.
SMILES | cell viability (compound concentration: 3 uM) | cell viability [1] [%]
C#C[C@]1(O)CC[C@H]2[C@@H]3CCC4=CC(=O)CCC4=C3C=C[C@@]21CC [Gestrinone] | 108 ± 1.3% | –
CN[C@@H](C)[C@@H](O)c1ccccc1 | 104% | –
CN1C[C@H](C(=O)N[C@]2(C)O[C@@]3(O)[C@@H]4CCCN4C(=O)[C@H](Cc4ccccc4)N3C2=O)C=C2c3cccc4[nH]cc(c34)C[C@H]21 [Ergotamine] | 127% | –
CN1C[C@H](C(=O)N[C@]2(C)O[C@@]3(O)[C@@H]4CCCN4C(=O)[C@H](Cc4ccccc4)N3C2=O)C=C2c3cccc4[nH]cc(c34)C[C@H]21 | 106% | –
NCC(CC(=O)O)c1ccc(Cl)cc1 (racemic) [(±)-Baclofen] | 108% | –
NCC(CC(=O)O)c1ccc(Cl)cc1 (racemic) [Baclofen (R,S)] | 92.6% | –
N[C@@H]1C[C@H]1c1ccccc1 [Tranylcypromine hydrochloride] | 103 ± 5.1% | –
[O-][n+]1ccccc1[S-].[O-][n+]1ccccc1[S-].[Zn+2] | 89.8% | –
NC(CCCCCP(=O)(O)O)C(=O)O (racemic) [(±)-2-Amino-7-phosphonoheptanoic acid] | 105% | –
C[C@]12C[C@H]3S[C@H]3C[C@@H]1CC[C@@H]1[C@@H]2CC[C@]2(C)[C@@H](O)CC[C@@H]12 [Epitiostanol] | 97.8% | –
COP(=O)(OC)C(O)C(Cl)(Cl)Cl (stereo not drawn) | 115% | –
COP(=O)(OC)C(O)C(Cl)(Cl)Cl (stereo not drawn) [Trichlorfon] | 94.3% | –
CCCC(C)C1(CC)C(=O)NC(=O)NC1=O (stereo not drawn) [Pentobarbital] | 110% | –
c1ccc(Cn2ccnc2)cc1 | 101% | –

Following part

| SMILES | cell viability (compound concentration: 3 uM) | cell viability [1] [%] |
| --- | --- | --- |
| O=c1cccc2n1CC1CC2CN(CCCN=C=S)C1 (stereo not drawn) | – | 89.7 |
| NC(=O)c1cc(N2CC2)c([N+](=O)[O-])cc1[N+](=O)[O-] | 92.4% | – |
| O=c1cccc2n1CC1CC2CN(c2nc(N3CCCC3)nc(N3CCCC3)n2)C1 (stereo not drawn) | – | 90.9 |
| NC(=O)CI [Iodoacetamide] | 97.7% | – |
| C[C@]12CCC(=O)C=C1C=C[C@@H]1[C@@H]2CC[C@@]2(C)[C@H]1CC[C@@]2(O)CCC(=O)O [Canrenoic acid potassium salt] | 90.3% | – |
| C[C@]12CCC(=O)C=C1C=C[C@@H]1[C@@H]2CC[C@@]2(C)[C@H]1CC[C@@]2(O)CCC(=O)O | 102% | – |
| C(#CCN1CCCC1)CN1CCCC1 [Tremorine dihydrochloride] | 83.5% | – |
| CC[C@@H](C(=O)[C@@H](C)[C@@H](O)[C@H](C)[C@@H]1O[C@@H]([C@@H](CC)C(=O)O)CC[C@@H]1C)[C@H]1O[C@]2(C=C[C@@H](O)[C@]3(CC[C@@](C)([C@H]4CC[C@](O)(CC)[C@H](C)O4)O3)O2)[C@H](C)C[C@@H]1C | 73.5% | – |
| COc1ccc2[nH]c3c(c2c1)CCNC3 [6-Methoxy-1,2,3,4-tetrahydro-9H-pyrido[3,4b] indole] | 107% | – |
| CS(=O)(=O)Nc1ccc(Cc2noc(-c3ccc4[nH]cc(CCN)c4c3)n2)cc1 | 101% | – |
| Cc1cccc(C)c1NC(=O)CN1CCCC1=O [Nefiracetam] | 97.3% | – |
| CN1CC[C@]2(CCN3CCc4c(oc5ccccc45)[C@@H]3C2)N(C)C1=O | 98.6% | – |
| CC(C)[C@H]1C(=O)N2CCC[C@H]2[C@]2(O)O[C@](NC(=O)[C@@H]3C=C4c5cccc6[nH]cc(c56)C[C@H]4N(C)C3)(C(C)C)C(=O)N12 [Ergocornine] | – | 99 |
| N#CC(C#N)=Cc1ccc(O)c(O)c1 [Tyrphostin 23] | 109% | – |
| CC(=O)N1C[C@@H]2C[C@H](C1)c1cccc(=O)n1C2 | – | 93.5 |
| S=C=NCc1ccccc1 | 78.6 ± 15% | – |
| COP(=O)(OC)OC=C(Cl)Cl | 103 ± 12% | – |
| c1ccc2c(c1)Nc1ccccc1S2 | 102% | – |
| C[C@]12CC[C@H]3[C@@H](CCC4=CC(=O)CC[C@@]43C)[C@@H]1CC[C@@H]2O [Testosterone] | 101% | – |
| C[C@]12CC[C@H]3[C@@H](CCC4=CC(=O)CC[C@@]43C)[C@@H]1CC[C@@H]2O | 117% | – |
| N=C(NCCC[C@H](N)C(=O)O)N[N+](=O)[O-] [NG-Nitro-L-arginine] | 116% | – |

| SMILES | cell viability (compound concentration: 3 uM) | cell viability [1] [%] |
| --- | --- | --- |
| Cc1ccc(/N=C/N(C)/C=N/c2ccc(C)cc2C)c(C)c1 | 102% | – |
| CCCN(CCC)C1Cc2cc(OC)c(OC)cc2C1 | 118% | – |
| O=c1c2ccccc2[se]n1-c1ccccc1 [Ebselen] | 110 ± 2.5% | – |
| O=c1c2ccccc2[se]n1-c1ccccc1 | 105 ± 2.7% | – |
| CC(C)NC(C)Cc1ccc(I)cc1 (stereo not drawn) [Iofetamine hydrochloride] | 94% | – |
| Nc1ncnc2c1ncn2[C@@H]1O[C@H](CI)[C@@H](O)[C@H]1O [5'-Iodo-5'-deoxyadenosine] | – | 91.4 |
| COc1cc2c(cc1O)C[C@H]1c3c(cc(OC)c(O)c3-2)CCN1C [Isoboldine] | – | 98.4 |
| O=c1ccc2cc(O[C@@H]3O[C@H](CO)[C@@H](O)[C@H](O)[C@H]3O)c(O)cc2o1 [Esculin] | – | 76.7 |
| O=C1c2ccccc2-c2cccc3cccc1c23 | 87.3% | – |
| NCC(O)c1ccc(O)cc1 (stereo not drawn) | 108% | – |
| COC(=O)N1CCN(C(=O)Cc2ccc(Cl)c(Cl)c2)C(CN2CCCC2)C1 (stereo not drawn) | 96.3% and 106% | – |
| CN1Cc2c(ccc3c2OCO3)[C@@H]2[C@H]1c1cc3c(cc1C[C@@H]2O)OCO3 [(+)-Chelidonine monohydrate] | – | 62.8 |
| CN1CCc2cccc(Cl)c2CC1 | 119% | – |
| COC(=O)[C@@H](N)CCCNC(=N)N[N+](=O)[O-] [NG-Nitro-L-arginine methyl ester hydrochloride] | 109% | – |
| CN[C@@H](C)[C@H](O)c1ccccc1 [Ephedrine] | – | 93.2 |
| CC[C@]1(O)CC[C@H]2[C@@H]3CCC4=CCCC[C@@H]4[C@H]3CC[C@@]21C [Ethylestrenol] | 98.4% | – |
| CC(=O)O[C@H]1C[C@@H]2CC[C@@H]3[C@H](CC[C@@]4(C)[C@H]3C[C@H]([N+]3(C)CCCCC3)[C@@H]4OC(C)=O)[C@@]2(C)C[C@@H]1[N+]1(C)CCCCC1 [Pancuronium] | 98.3 ± 5.5% | – |
| CC(=O)O[C@H]1C[C@@H]2CC[C@@H]3[C@H](CC[C@@]4(C)[C@H]3C[C@H]([N+]3(C)CCCCC3)[C@@H]4OC(C)=O)[C@@]2(C)C[C@@H]1[N+]1(C)CCCCC1 [Pancuronium bromide] | 86.2 ± 19% | – |
| CC(=O)O[C@H]1C[C@@H]2CC[C@@H]3[C@H](CC[C@@]4(C)[C@H]3C[C@H]([N+]3(C)CCCCC3)[C@@H]4OC(C)=O)[C@@]2(C)C[C@@H]1[N+]1(C)CCCCC1 | 106% | – |
